Laboratory results as given in EP0533352A2, “Gaba receptor agonists to treat bladder instability” (LYNXVALE LIMITED, priority 1991, dated 1993).

How the values were obtained:
[1] = test system: Rabbit urinary bladder smooth muscle strips; assay: Nerve mediated contractions of rabbit urinary bladder muscle strips induced by electrical field stimulation; format: cell-based; conditions: percentage inhibition of control contraction; 10 Hz, 0.2 ms pulse width, 30V for 3 s; mean ± S.E.M.
[2] = test system: carbachol (5x10⁻⁶M) induced muscle contraction; assay: Carbachol mediated muscle contractions of rabbit bladder muscle strips; format: cell-based
Description: Male Dutch rabbits weighing 800-1000g were killed and the bladder removed and placed in ice cold Krebs' solution. Muscle strips were obtained measuring approximately 8mm in length and 2mm in diameter. They were stored for a maximum of 20 hours at 4°C in oxygenated Krebs' solution before their use. The strips were suspended in a superfusion chamber (capacity 0.2ml) of the Brading and Sibley design (1983) and superfused with Krebs' solution (NaCl 124; KCl 5; MgCl₂ 1.3; NaHCO₃ 26; CaCl₂ 0.8; KH₂PO₄ 1.4 and Glucose 10 [mM] continually gassed with 95% O₂ and 5% CO₂) at 37°C and at 1ml/min. A loading tension of 0.5g was applied and the strips were allowed to equilibrate for 1 hour. The muscle strips were then stimulated with electrical field stimulation at a constant frequency to ensure that stable reproducible contractions were obtained.
Carbachol mediated muscle contractions were obtained by adding the concentration of carbachol (5x10⁻⁶ M) to the superfusion chamber and exposing the tissue for ten seconds. The effects of GABA and baclofen on carbachol mediated contractions were then observed by superfusing the tissue with the concentration of the drugs dissolved in Kreb's solution.
Statistical analysis was performed using Student's "t" test. Comparisons of the dose response curves was performed by computer curve fitting using a Hill equation. […]

**Q.** Which “maximum inhibition of muscle contraction induced by electrical field stimulation” value [1] does the source give for `NCCCC(=O)O` [GABA, gamma amino butyric acid] here?
**A.** 32.5 (±1.9) %

**Q.** What about the “inhibition of carbachol induced contraction in the presence of TTX” value [2] of the same compound?
**A.** did not abolish the inhibition

**Q.** And the “inhibition of carbachol induced muscle contraction” value ([2]; carbachol 5x10⁻⁶M, GABA: 10 strips, not in 6 strips, baclofen: 6 strips, not in 3 strips)?
**A.** dose dependent inhibition
